# Assay results from PubChem BioAssay AID686993 (Broad Institute, 2013).
# Only results without a clear call are listed here; the source files them as inconclusive.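 The calls were made as follows: active = compound whose fitted half-maximal inhibitory dose is at most twice its top valid dose in every replicate test; inconclusive = replicate test calls disagree with one another; inactive = all replicate tests inactive, including opposite-direction effects.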
# Test system: UDP-N-acetylbacillosamine N-acetyltransferase PglD (Campylobacter jejuni)
# Test: inhibition of C. jejuni PglD N-acetyltransferase – biochemical, DTNB absorbance, dry powder samples, set 4, dose response (AID 686993)
# Conditions: purified PglD, DTNB absorbance 412 nm, CoA release; at 38 µM (top of the series)
smiles,measurement,value
Cc1c(C(=O)O)sc2nc(/C=C/c3cccc(C(=O)O)c3)[nH]c(=O)c12,"activity change, negative = inhibition",inconclusive: -25.7%
